# Experimental data taken from US20100216724A1, “USE OF F[…] (196-203 ) AS A […] AGENT” (priority 2007, published 2010).
# Part of at least one peptide drawing is inferred or uncertain, most often the ends. Where no end group is shown, it is not given here.
# How the values were obtained:
# HIV-1IIIB = test: HIV-1 antiviral assay (CPE reduction, MTS) in CEM-SS cells; type: cell-based; details: test peptide 10 micrograms per ml, 6 days post-infection
# [1] = tested on: hepatitis B virus (HBV) ayw strain in HepG2-2.2.15 cells; test: HBV experimental assay system (secreted HBV DNA, TaqMan PCR); type: cell-based; details: test peptide 10 micrograms per ml; six days; HBV DNA in supernatant
# HCMV strain AD169 = test: HCMV plaque reduction assay in MRC-5 cells; type: cell-based; details: HCMV AD169 in MRC-5 cells; test peptide 10 micrograms per ml; 7-10 days
# Human A549 cells [2] = test: Propidium iodide cell cycle assay; type: cell-based; details: 24 hours, peptide 10 micrograms per ml, FACS
# [3] = tested on: Human Peripheral Blood Mononuclear Cells (PBMC), T cell proliferation; test: T cell proliferation assay (PHA, 3H-thymidine); type: cell-based; details: peptide 10 micrograms per ml
# [4] = tested on: Human Peripheral Blood Mononuclear Cells (PBMC), B cell proliferation; test: B cell proliferation assay (SAC plus Interleukin-2, 3H-thymidine); type: cell-based; details: peptide 10 micrograms per ml
# RAW 264.7 cells = test: Phagocytosis assay (Fluorescein-labeled Escherichia coli, flow cytometry); type: cell-based, mouse; details: peptide 10 micrograms per ml
# Human A549 cells [5] = test: Apoptosis induction assay (Annexin-5); type: cell-based; details: 24 hours, peptide 10 micrograms per ml
# Human A549 cells [6] = test: Apoptosis prevention assay (C2 ceramide, Annexin-5); type: cell-based; details: A549 cells pretreated 30 min, peptide 10 micrograms per ml
# [7] = tested on: spleen cells of Ovalbumin-immunized Balb/c mice; test: Th1/Th2 cytokine profiling assay (Ovalbumin restimulated spleen cells, CBA kit); type: cell-based, mouse; details: peptide 10 micrograms per ml; Ovalbumin restimulation; 72 hours
# [8] = tested on: TNF alpha production by macrophages from human PBMC; test: TNF alpha production assay (LPS-stimulated macrophages, ELISA); type: cell-based; details: peptide 10 micrograms per ml, lipopolysaccharide 200 ng/ml, overnight
# [9] = tested on: Primary Human endothelial cells (HUVEC); test: Endothelial cell migration assay; type: cell-based; details: peptide 10 micrograms per ml, 22 hours
# HUVEC = test: Endothelial tube formation assay; type: cell-based, human; details: peptide 10 micrograms per ml, 20 hours
substance,measurement,setting,value
SRNRCNDQ-NH2,% CPE reduction in HIV-1 infected CEM-SS cells,HIV-1IIIB,0.0%
same,% inhibition of HBV replication in HEP G2 cells,[1],13.7%
same,% plaque reduction,HCMV strain AD169,0.0%
same,Cell cycle analysis G0/G1,Human A549 cells [2],56.0
same,Cell cycle analysis G2/M,Human A549 cells [2],10.9
same,Cell cycle analysis S,Human A549 cells [2],33.1
same,% of PHA induced Control,[3],95.6%
same,% of SAC/IL2 induced control,[4],106.1%
same,% of control phagocytosis,RAW 264.7 cells,105.9%
same,% of induction,Human A549 cells [5],0.7%
same,% prevention of ceramide induced apoptosis,Human A549 cells [6],0.0%
same,IFNγ spleen cells; TH1 response (% of control),[7],63.1 % of control
same,IL-2 spleen cells (% of control),[7],140.9 % of control
same,IL-4 spleen cells; TH2 response (% of control),[7],192.7 % of control
same,IL-5 spleen cells; TH2 response (% of control),[7],80.1 % of control
same,TNF-a spleen cells; TH1 response (% of control),[7],103.1 % of control
same,% of LPS induction,[8],116.2%
same,% inhibition of migration,[9],29%
same,% inhibition of tube formation,HUVEC,14%
